Taken from: PubChem BioAssay AID1224830 (NIAID, 2016)

Purpose: 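Regulators of TLR4 signalling towards TNF-alpha in macrophage-like cells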 (primary screen)
System: human THP-1 monocytic leukaemia cells, TNF dual-luciferase reporter clone, PMA-differentiated to macrophage-like cells
Reagent: siRNA pool against human genes, 50 nM
Duration: LPS for 4 h, given about 3 days after siRNA transfection
Challenge: bacterial LPS (TLR4 ligand), 10 ng/ml
Measured: 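Ratio of firefly to renilla light, scaled to the plate median and expressed as a robust z-score per replicate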
Scale: TNF reporter robust z-score: higher = stronger TNF reporter response to LPS
Call rule: 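Each well counts as active if its z-score is over 2.8 or under -1.5; controls are left without a call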
Shown is a random part of about 18,000 deposited reagents. About 2,900 of them (16%) count as active. 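Calls are made per well; low scores hint the gene aids the LPS response, high scores that it dampens it.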 Repeated entries: four replicate wells of each siRNA pool. Reagent sequences are not shown.

| target | TNF reporter robust z-score | Outcome |
| --- | --- | --- |
| VBP1 | -2.28 | active |
| VBP1 | 0.44 | inactive |
| VBP1 | -0.53 | inactive |
| VBP1 | 0.52 | inactive |
| DUSP29 | -0.43 | inactive |
| DUSP29 | 0.23 | inactive |
| DUSP29 | 1.92 | inactive |
| DUSP29 | 0.28 | inactive |
| PTK2 | 0.5 | inactive |
| PTK2 | 0.75 | inactive |
| PTK2 | 1.07 | inactive |
| PTK2 | 0.08 | inactive |
| POGLUT3 | -0.57 | inactive |
| POGLUT3 | 1.48 | inactive |
| POGLUT3 | 2.21 | inactive |
| POGLUT3 | 0.8 | inactive |
| CYTH2 | 0.39 | inactive |
| CYTH2 | -0.88 | inactive |
| CYTH2 | -1.25 | inactive |
| CYTH2 | -0.2 | inactive |
| PSMA2 | -1.52 | active |
| PSMA2 | -1.33 | inactive |
| PSMA2 | -1.34 | inactive |
| PSMA2 | -0.2 | inactive |
| HERPUD1 | -0.43 | inactive |
| HERPUD1 | 0.4 | inactive |
| HERPUD1 | 0.35 | inactive |
| HERPUD1 | -0.71 | inactive |
| SLC7A7 | -1.67 | active |
| SLC7A7 | -1.25 | inactive |
| SLC7A7 | -1.43 | inactive |
| SLC7A7 | -1.34 | inactive |
| DDX52 | -0.34 | inactive |
| DDX52 | 0.1 | inactive |
| DDX52 | 0.42 | inactive |
| DDX52 | 0.8 | inactive |
| RALGDS | 1.99 | inactive |
| RALGDS | 0.85 | inactive |
| RALGDS | -0.95 | inactive |
| RALGDS | -1.37 | inactive |
| THSD7B | 2.06 | inactive |
| THSD7B | 1.36 | inactive |
| THSD7B | 0.25 | inactive |
| THSD7B | 0.34 | inactive |
| BIRC3 | -0.17 | inactive |
| BIRC3 | 1.47 | inactive |
| BIRC3 | 1.15 | inactive |
| BIRC3 | 0.08 | inactive |
| IL1B | -1.26 | inactive |
| IL1B | -0.22 | inactive |
| IL1B | -0.7 | inactive |
| IL1B | -0.8 | inactive |

In a second layout: 13 of the entries above
target | TNF reporter robust z-score | Outcome
RALGDS | 0.85 | inactive
RALGDS | -0.95 | inactive
RALGDS | -1.37 | inactive
THSD7B | 2.06 | inactive
THSD7B | 1.36 | inactive
THSD7B | 0.25 | inactive
THSD7B | 0.34 | inactive
BIRC3 | -0.17 | inactive
BIRC3 | 1.47 | inactive
BIRC3 | 1.15 | inactive
BIRC3 | 0.08 | inactive
IL1B | -1.26 | inactive
IL1B | -0.22 | inactive

Next reagents follow.
| target | TNF reporter robust z-score | Outcome |
| --- | --- | --- |
| DGKE | -1.22 | inactive |
| DGKE | -1.01 | inactive |
| DGKE | -0.94 | inactive |
| DGKE | -0.74 | inactive |
| CYP4A11 | 2.02 | inactive |
| CYP4A11 | 2.32 | inactive |
| CYP4A11 | -0.33 | inactive |
| CYP4A11 | 2.1 | inactive |
| PCDHGB1 | 5.24 | active |
| PCDHGB1 | 2.66 | inactive |
| PCDHGB1 | 2.96 | active |
| PCDHGB1 | 1.9 | inactive |
| CYP2U1 | 0.39 | inactive |
| CYP2U1 | 0.5 | inactive |
| CYP2U1 | 0.53 | inactive |
| CYP2U1 | -0.64 | inactive |
| MYO5B | 0.42 | inactive |
| MYO5B | 1.38 | inactive |
| MYO5B | 0.43 | inactive |
| MYO5B | 0.99 | inactive |
| GUCD1 | -0.11 | inactive |
| GUCD1 | -1.27 | inactive |
| GUCD1 | -1.44 | inactive |
| GUCD1 | -1.32 | inactive |
| ESRP1 | -0.51 | inactive |
| ESRP1 | -0.6 | inactive |
| ESRP1 | -0.7 | inactive |
| ESRP1 | -0.78 | inactive |
| ABCD3 | -1.2 | inactive |
| ABCD3 | -0.04 | inactive |
| ABCD3 | -1.13 | inactive |
| ABCD3 | 1.02 | inactive |
| TEX19 | -0.05 | inactive |
| TEX19 | -0.49 | inactive |
| TEX19 | -0.48 | inactive |
| TEX19 | -0.64 | inactive |
| OR6Q1 | -1.09 | inactive |
| OR6Q1 | -0.96 | inactive |
| OR6Q1 | -0.18 | inactive |
| OR6Q1 | -0.74 | inactive |
| EPHA3 | -0.25 | inactive |
| EPHA3 | -0.3 | inactive |
| EPHA3 | 0.34 | inactive |
| EPHA3 | -1.2 | inactive |
| FAM131C | -0.96 | inactive |
| FAM131C | 2.45 | inactive |
| FAM131C | -0.31 | inactive |
| FAM131C | 1.6 | inactive |
| DCBLD2 | -1.16 | inactive |
| DCBLD2 | -0.63 | inactive |
| DCBLD2 | -1.01 | inactive |
| GTF2H2C_2 | -0.54 | inactive |
| GTF2H2C_2 | -0.3 | inactive |
| GTF2H2C_2 | -0.48 | inactive |
| GTF2H2C_2 | -0.81 | inactive |
| CSTL1 | 2.83 | active |
| CSTL1 | 1.47 | inactive |
| CSTL1 | 0.95 | inactive |
| CSTL1 | 1.6 | inactive |
